Our source for the z-score values is PubChem BioAssay AID463116 (University of Pittsburgh Molecular Library Screening Center, 2010).

This is one part of the list. Shown are side measurements of this screen, not its main read-out; they come without a call. Compounds called inactive in the main read-out are mostly missing here.

The assay is described as follows: blockers of dexamethasone-driven GR-EGFP nuclear import – imaging, high-content imaging, GR-EGFP cells, confirmation (AID 463116). As to conditions: 3617.4 GR-EGFP nuclear translocation imaging, dexamethasone-induced; measured here: cell count per field; at 20 µM.
In turn, `COc1ccc(OC)c(N2C(=O)NC(=O)/C(=C\c3ccc([N+](=O)[O-])s3)C2=O)c1` displayed a z-score of -0.601.

`C=C1C(=O)O[C@H]2C[C@@H](C)[C@@H]3C=CC(=O)[C@@]3(C)C[C@H]12` displayed a z-score of 0.396.

Take `Cc1ccc(N2C(=O)NC(=O)/C(=C/C=C/c3ccco3)C2=O)cc1`: the z-score is 0.288.

Molecule `N#CC(C#N)=Cc1ccc(C=C(C#N)C#N)cc1` gave a z-score of 0.0743.

`COc1ccc(Oc2cc(NC(=O)c3nn(C)cc3[N+](=O)[O-])cc([N+](=O)[O-])c2)cc1` displayed a z-score of 0.431.

As to `O=C1NC(=O)N(Cc2ccccc2)C(=O)/C1=C/C=C/c1ccco1`, the z-score was -0.0278.

With `O=C1NC(=O)N(c2ccccc2)C(=O)/C1=C\c1ccc([N+](=O)[O-])s1`, the z-score was -0.404.

`Cc1cc(C)cc(N2C(=O)NC(=O)/C(=C\C=C\c3ccco3)C2=O)c1` returned a z-score of 0.951.

`CCN(CC)c1ccc(/C=C/[N+](=O)[O-])cc1` showed a z-score of -0.46.

Regarding `COc1cccc(N2C(=O)NC(=O)/C(=C/c3ccc([N+](=O)[O-])s3)C2=O)c1`, the z-score came to 0.101.

On to `CC[n+]1c(/C=C/C=C/c2ccc(N(C)C)cc2)sc2ccccc21`, for which the z-score is -0.539.

Regarding `C/C(=C\c1ccc(N(C)C)cc1)[N+](=O)[O-]`, the z-score amounted to 0.385.

Molecule `COc1ccc(N2C(=O)NC(=O)/C(=C/c3ccc([N+](=O)[O-])s3)C2=O)cc1` came in with a z-score of -0.253.

With `Cc1nn(Cc2ccccc2)c(C)c1C=C1C(=O)NC(=S)NC1=O`, the z-score came to 0.104.

For the molecule `Cc1cc([N+](=O)[O-])c2ccccc2[n+]1[O-]`, the z-score stood at 0.373.

`C=CCN1C(=O)/C(=C/c2cc(C)n(-c3cccnc3)c2C)C(=O)NC1=S` came in with a z-score of 0.54.

`CN1CCN(c2ccc([N+](=O)[O-])c3no[n+]([O-])c23)CC1` yielded a z-score of -3.97.

For the molecule `CC1(C)C[C@H]2C=C(C=O)[C@]3(C=O)C[C@]3(C)[C@H]2C1`, the z-score is 0.754.

`CN1C(=O)NC(=O)/C(=C/c2ccc([N+](=O)[O-])s2)C1=O` gave a z-score of 0.709.

Molecule `Cc1ccc(N2C(=O)NC(=O)/C(=C\C=C\c3ccco3)C2=O)cc1C` showed a z-score of 0.162.

Molecule `C=CCN1C(=O)NC(=O)/C(=C/C=C/c2ccccc2)C1=O` showed a z-score of 0.621.

`CCOC(=O)c1c(-n2c(C)cc(C=C3C(=O)NC(=S)NC3=O)c2C)sc2c1CCCC2`: the z-score is -0.15.

For the molecule `CC(C)c1ccc(N2C(=O)NC(=O)/C(=C\C=C\c3ccco3)C2=O)cc1`, the z-score worked out at 0.249.

The molecule `COc1ccc(OC)c(N2C(=O)NC(=O)/C(=C/c3ccc([N+](=O)[O-])s3)C2=O)c1` registered a z-score of 0.527.

As for `O=C1NC(=O)N(CCc2ccc(F)cc2)C(=O)/C1=C\C=C\c1ccccc1`, the z-score was -0.438.

The molecule `COc1cccc(C2CC3C(=O)C=CC2N3Cc2ccccc2)c1` (configuration not stated) had a z-score of 0.565.

Molecule `CC(=O)OC(C)(C)/C=C/C(=O)[C@](C)(O)[C@H]1[C@H](O)C[C@@]2(C)[C@@H]3CC=C4[C@H](C[C@H](O)C(=O)C4(C)C)[C@]3(C)C(=O)C[C@]12C` registered a z-score of -0.066.
